The record followed here is patent US10308899B2, “Liquid automatic dish washing detergent compositions” (Novozymes A/S, priority 2013, dated 2019).

Where only a bound is given, the exact number is not on record here.

Common to all, as to type: biochemical
For assay [1], the target named is T1, Protease1 (subtilisin 309) (Lederbergia lenta, UniProt P29600).
T1 sequence (P29600 1-269): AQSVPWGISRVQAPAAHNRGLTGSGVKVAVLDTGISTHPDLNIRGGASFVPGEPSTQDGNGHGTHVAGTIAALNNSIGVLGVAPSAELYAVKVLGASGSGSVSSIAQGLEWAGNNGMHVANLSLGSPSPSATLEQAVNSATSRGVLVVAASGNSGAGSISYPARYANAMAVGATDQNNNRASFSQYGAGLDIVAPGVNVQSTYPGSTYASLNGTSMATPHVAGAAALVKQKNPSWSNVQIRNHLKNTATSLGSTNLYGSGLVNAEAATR
As to the kind of experiment: Storage stability of Protease1 in liquid ADW detergent (residual protease activity, N,N-dimethylcasein hydrolysis). To be noted: Protease1 with 3.3 mg peptide aldehyde/100 g (mole ratio 2.6), Detergent A, Example 2. The source says:
(§1) Chemicals used as buffers and substrates were commercial products of at least reagent grade. Protease1, Protease2, Protease3, and Protease4, as used in the examples below, are subtilisin proteases. Protease1 has the amino acid sequence shown in SEQ ID NO: 1 (subtilisin 309). Protease2 has the amino acid sequence shown in SEQ ID NO: 2 (variant of subtilisin 309). Protease3 has the amino acid sequence shown in SEQ ID NO: 3 (variant of subtilisin 309). Protease4 has the amino acid sequence shown in SEQ ID NO: 4 (subtilisin BPN′).
Various peptide aldehydes were produced, all with a purity >80%. The peptide aldehydes were dissolved in DMSO to a concentration of 10 mg/ml before use.
(§2) To detergent A from Example 1, the following amount of enzyme and different inhibitors (peptide aldehydes) were added, all samples normalized to 100 g of detergent. Inhibitor amount in mg is given as the pure component (added from the 10 mg/mL solution). Three subtilisin proteases were used: Protease1, Protease2, and Protease4, all in concentration of 0.04 g active enzyme protein per gram of enzyme solution.
(§3) The detergents were placed in closed glasses at 37° C. for 2 weeks. Residual activity of protease was measured (by comparison to a reference stored at −18° C.) using standard enzyme analytical method (protease activity measured by hydrolysis of N,N-dimethylcasein at 40° C., pH=8.3).

Assay [2] addresses Protease3 (variant of subtilisin 309) (Lederbergia lenta, UniProt P29600, INS97E). As to the kind of experiment: Storage stability of Protease3 in liquid ADW detergent (residual protease activity, N,N-dimethylcasein hydrolysis). To be noted: Protease3 with inhibitor 3.4 mg/100 g (mole ratio 2.1), vs reference stored at −18° C.
Text: as §1
(§4) The peptide aldehyde hydrosulfite adduct described above was dissolved in 40% propylene glycol and water was added to make a 24% w/w solution of the adduct. Three different model liquid dishwashing detergents were prepared for testing the peptide aldehyde derived inhibitor representing three different levels of strong sequestering builder.
(§5) [formula] To the detergent bases, the following amount of enzyme and inhibitor (peptide aldehyde hydrosulfite adduct described above) were added, all samples normalized to 100 g of detergent. Inhibitor amount in mg is given as the pure component (added from the 24% solution). Protease2 and Protease3 were used in concentrations of 0.04 g active enzyme protein per gram of enzyme solution. The mole ratio expresses the molar ratio of the inhibitor relative to the enzyme.
as §3

Assay [3] has as its target Protease2 (variant of subtilisin 309) (Lederbergia lenta, UniProt P29600, DUP96-96/S97D). As to the kind of experiment: Storage stability of Protease2 in liquid ADW detergent (residual protease activity, N,N-dimethylcasein hydrolysis). To be noted: Protease2 with inhibitor 3.4 mg/100 g (mole ratio 2.1), Example 1.
Text: as §1, §4, §5, §3, §2

Regarding “Cbz-Gly-Ala-Tyr-H (GAY; N-terminal benzyloxycarbonyl (Cbz); C-terminal aldehyde (-H) on Tyr) [peptide aldehyde, Cbz is benzyloxycarbonyl]”, the “Residual protease activity after two weeks at 37° C.” value in assay [1] was 81%.
Regarding “inhibitor: XB^1—NH—CHR—CHOH—SO3Na, X=Cbz-Gly; B^1=Ala; R=—CH2-p(C6H4)—OH; the hydrosulfite adduct of Cbz-Gly-Ala-Tyr-H (GAY; N-terminal benzyloxycarbonyl (Cbz); C-terminal Tyr as hydrosulfite adduct of the aldehyde (-NH-CHR-CHOH-SO3Na))”, the “Residual protease activity after two weeks at 37° C.” value in assay [2] (Detergent A (invention)) is given as at least 100%; in assay [2] (Detergent B (invention)), 92%; in assay [2] (Detergent C (reference)), 85%; in assay [3] (Detergent A (invention)) it was 90%; in assay [3] (Detergent B (invention)), at least 100%; in assay [3] (Detergent C (reference)), at least 100%.
